Measurements as given in the supplement of paper PMC3334620.
Whole data set: some 33,000 sequences, median “E-score (-0.5 to 0.5)” near -8e-05, cut for the highest 2% near 0.23. The list shows a part of the results.

Molecular target: T1, Nrg2 (UniProt P38082)
T1 sequence: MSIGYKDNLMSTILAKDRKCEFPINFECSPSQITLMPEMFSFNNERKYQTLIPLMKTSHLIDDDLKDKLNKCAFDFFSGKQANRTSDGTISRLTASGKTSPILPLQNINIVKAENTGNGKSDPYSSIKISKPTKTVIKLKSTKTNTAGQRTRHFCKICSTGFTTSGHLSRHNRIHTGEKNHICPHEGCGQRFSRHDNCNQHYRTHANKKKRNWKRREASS
Assay: PBM E-score (8-mer binding enrichment) (E-score (-0.5 to 0.5)); higher = stronger / more preferred TF binding
Conditions: protein concentration: 100 nM; construct: GST-full length
Procedure, shortened: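 Yeast transcription factors, full-length or as DNA-binding domains, were expressed with a GST tag using PURExpress in vitro transcription/translation. At about 100-200 nM they were applied to universal all-10-mer Agilent arrays, double-stranded by primer extension on fresh or once-stripped slides. Fluorescent anti-GST detected bound protein, and masliner normalised the scans. E-scores for ungapped eight-base words, pooled with reverse complements, came from the Universal PBM Analysis Suite.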

Sequence	PBM E-score
ACGCCACA	0.0755
CTTCCCTC	-0.154
ACCTCCCT	0.0348
AGTAAGTC	-0.0316
AATCCCGC	0.205
CCAATCTA	0.0273
CTATCTAC	0.00786
GCCTGACA	-0.173
TGGAGAAA	-0.00343
TACCAACA	-0.00283
TCTGTGCA	0.134
GGTCAACC	-0.121
CCTCAGCC	-0.0964
GAATCGTA	0.0106
AGCTTTAA	0.0501
GAGAGCAA	-0.078
GCTAAACC	-0.258
AGATTACA	-0.0219
ACTAAGAC	-0.158
GTTCGCGA	0.0981
CTCGTCAA	-0.037
CTGTCCCA	-0.216

Sequence	PBM E-score
GAGCCGCC	-0.0798
AGTTATAC	0.00861
ACCGAGAC	0.0453
GCATGTCA	0.0509
GCTTCAAC	0.00148
CGTCGAAA	0.075
CCCTCCGG	-0.269
GGCCGAAC	-0.172
AATTTTGG	0.0507
AAATAACC	-0.0181
TCGTATAA	0.146
CCAAAGAG	-0.0632
GAGGTGAA	0.00453
ACGAGTAC	0.0318
CCCACATC	-0.0924
CAACCGTG	-0.105
CGGCGGGA	-0.177
AAGGAATA	0.191
CACGCCCA	-0.0984
ATACGCCA	-0.044
AGAGGAGG	-0.333
AACCGCAA	0.185

Taken from the results shown (4 entries):
Sequence	PBM E-score
GAGGTGAA	0.00453
ACGAGTAC	0.0318
CCCACATC	-0.0924
CAACCGTG	-0.105

Following part:

Sequence	PBM E-score
CCGTCTAG	-0.0277
ACACAGTC	0.105
CCAAAGCC	-0.0707
GTCTCTAA	0.00343
ACTACATA	0.0943
CTAATCAC	0.194
CTTTCTCC	-0.142
CTGATGCC	-0.0784
AAGGACTG	-0.209
GCCCTAAC	0.122
GTTCCCGA	-0.0852
TAGCTATA	0.0144
CTCATGGC	0.0578
ACGTGCGA	-0.164
CTCACCAA	0.173
ATGGAATC	0.267
GCTGGCAC	-0.0654
CAGCACCC	-0.292
ATCAAGAG	0.16
ATTTGTCC	0.139
ATTGGACC	0.0507
ATGAATGG	0.339

Sequence	PBM E-score
AGGCTCAA	-0.0585
ACGCGTAA	-0.0223
CGCAATTC	0.156
CAAAGCGC	0.0307
CGGACCAG	0.101
ACACGGCG	0.0413
ACCCGGAT	-0.0838
ACCACAGG	-0.0691
ATCCCGCC	0.0743
ATCCTTAG	-0.109
ATCTCACG	0.0639
AGATAGAT	-0.0966
GGCTATAA	-0.165
GCAACAGA	0.0125
AACCTCAT	-0.0112
GTATACGA	-0.106
AATGAACA	0.173
CATCCGGG	-0.0671
TTAAACAA	-0.0194
CAAAAGGC	0.0593
